PubChem BioAssay AID1259254, NCATS | 2017

Screen: 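Genome-wide screen for genes that prevent DNA re-replication in cancer cells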 (primary screen)
Cell system: human HCT116 colorectal cancer cells
Knock-down reagent: single siRNA against human genes
Duration: 3 days
Read-out: 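Imaged Hoechst DNA stain sorts each cell into a cycle phase by DNA amount; per plate, G2 fraction set to 0% for non-targeting and 100% for GMNN siRNA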
Scale: G2 robust z-score: higher = more G2 cells, more excess DNA replication
Active means: 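Active siRNAs have a G2 robust z of 5 or more median absolute deviations over the median, which in these data means about 38% or higher of GMNN control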
Here is one part, drawn at random, of about 59,000 deposited reagents. About 1,550 of them (2.6%) were called active. 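G2 share is only a proxy for re-replication; each gene was hit by three separate siRNAs, and active genes were retested.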 A number with no mark means an inactive call. Further read-outs or replicates are left out here. No sequences are given here. The record does not give: the amount of reagent.

MFSD6L (major facilitator superfamily domain containing 6 like) [SID160759910] — G2 robust z-score: 0.245
MFSD6L (major facilitator superfamily domain containing 6 like) [SID160759911] — G2 robust z-score: 0.738
MFSD6L (major facilitator superfamily domain containing 6 like) [SID160759912] — G2 robust z-score: -0.547
TAS2R39 (taste 2 receptor member 39) [SID160762615] — G2 robust z-score: -0.632
TAS2R39 (taste 2 receptor member 39) [SID160762616] — G2 robust z-score: 1.02
TAS2R39 (taste 2 receptor member 39) [SID160762617] — G2 robust z-score: -0.288
SNX7 (sorting nexin 7) [SID160740710] — G2 robust z-score: 1.23
SNX7 (sorting nexin 7) [SID160740711] — G2 robust z-score: -0.041
SNX7 (sorting nexin 7) [SID160740712] — G2 robust z-score: -0.528
FES (FES proto-oncogene, tyrosine kinase) [SID160764833] — G2 robust z-score: 0.372
FES (FES proto-oncogene, tyrosine kinase) [SID160764844] — G2 robust z-score: 2.35
FES (FES proto-oncogene, tyrosine kinase) [SID160764855] — G2 robust z-score: -0.377

Records listed so far whose target name begins with T or t (3):
TAS2R39 (taste 2 receptor member 39) [SID160762615] — G2 robust z-score: -0.632
TAS2R39 (taste 2 receptor member 39) [SID160762616] — G2 robust z-score: 1.02
TAS2R39 (taste 2 receptor member 39) [SID160762617] — G2 robust z-score: -0.288
